The source of these data is the supplement of paper PMC12067093, “Discovery and optimisation of a covalent ligand for TRIM25 and its application to targeted protein ubiquitination” (Chemical Science, 2025).

Protein sequences, listed by entry. Tags and fused reporters are not part of them. Lines headed by an entry give the natural chain unless they say otherwise; changes in a name come on top.
UniProt Q9NZK5: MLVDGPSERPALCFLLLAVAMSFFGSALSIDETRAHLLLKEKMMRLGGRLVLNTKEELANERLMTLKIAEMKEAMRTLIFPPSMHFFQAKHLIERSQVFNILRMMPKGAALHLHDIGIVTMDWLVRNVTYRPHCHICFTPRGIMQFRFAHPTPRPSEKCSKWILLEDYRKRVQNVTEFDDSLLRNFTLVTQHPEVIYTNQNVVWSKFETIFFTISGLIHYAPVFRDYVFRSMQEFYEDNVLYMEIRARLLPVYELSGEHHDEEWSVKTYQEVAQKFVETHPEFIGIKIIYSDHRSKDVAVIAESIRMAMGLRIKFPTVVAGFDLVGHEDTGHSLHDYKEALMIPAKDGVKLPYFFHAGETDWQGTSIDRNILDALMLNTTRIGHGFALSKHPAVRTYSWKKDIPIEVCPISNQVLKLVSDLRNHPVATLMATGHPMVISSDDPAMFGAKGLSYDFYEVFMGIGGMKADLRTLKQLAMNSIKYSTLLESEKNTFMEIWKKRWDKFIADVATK
UniProt O43707, whole entry, looked up: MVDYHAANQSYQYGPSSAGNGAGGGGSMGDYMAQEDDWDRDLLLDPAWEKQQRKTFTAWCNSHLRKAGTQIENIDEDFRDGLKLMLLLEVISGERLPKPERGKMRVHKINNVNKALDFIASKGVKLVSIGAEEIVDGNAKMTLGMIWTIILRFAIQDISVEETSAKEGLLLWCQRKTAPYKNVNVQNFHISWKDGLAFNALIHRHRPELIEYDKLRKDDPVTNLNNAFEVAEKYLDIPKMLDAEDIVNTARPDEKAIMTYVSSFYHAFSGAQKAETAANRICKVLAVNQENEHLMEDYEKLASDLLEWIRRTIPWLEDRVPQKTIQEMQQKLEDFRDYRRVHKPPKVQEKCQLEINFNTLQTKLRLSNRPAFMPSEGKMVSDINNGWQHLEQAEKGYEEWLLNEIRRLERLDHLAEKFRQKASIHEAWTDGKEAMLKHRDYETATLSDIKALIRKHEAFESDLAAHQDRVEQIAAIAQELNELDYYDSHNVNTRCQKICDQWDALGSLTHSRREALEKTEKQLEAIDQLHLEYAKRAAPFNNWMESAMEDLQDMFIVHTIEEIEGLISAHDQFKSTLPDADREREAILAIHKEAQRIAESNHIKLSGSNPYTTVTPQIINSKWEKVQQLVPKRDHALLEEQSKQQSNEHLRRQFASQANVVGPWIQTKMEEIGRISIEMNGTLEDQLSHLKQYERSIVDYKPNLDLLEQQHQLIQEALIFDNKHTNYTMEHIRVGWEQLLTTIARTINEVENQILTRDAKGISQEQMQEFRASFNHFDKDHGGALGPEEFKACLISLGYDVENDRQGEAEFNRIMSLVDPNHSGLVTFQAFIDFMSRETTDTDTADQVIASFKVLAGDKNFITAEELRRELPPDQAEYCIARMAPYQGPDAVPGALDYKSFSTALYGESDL
UniProt Q03154: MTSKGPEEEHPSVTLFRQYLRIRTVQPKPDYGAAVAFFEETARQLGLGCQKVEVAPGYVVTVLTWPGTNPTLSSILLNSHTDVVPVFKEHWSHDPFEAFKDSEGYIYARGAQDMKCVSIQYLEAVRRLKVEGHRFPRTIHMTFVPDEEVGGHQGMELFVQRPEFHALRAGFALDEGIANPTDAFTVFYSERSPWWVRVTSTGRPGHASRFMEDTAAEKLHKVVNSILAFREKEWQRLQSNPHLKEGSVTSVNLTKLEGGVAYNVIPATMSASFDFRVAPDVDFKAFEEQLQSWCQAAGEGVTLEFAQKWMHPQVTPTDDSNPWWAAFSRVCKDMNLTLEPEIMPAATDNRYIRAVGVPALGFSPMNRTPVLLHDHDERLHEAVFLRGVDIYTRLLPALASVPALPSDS
UniProt Q9ULC5: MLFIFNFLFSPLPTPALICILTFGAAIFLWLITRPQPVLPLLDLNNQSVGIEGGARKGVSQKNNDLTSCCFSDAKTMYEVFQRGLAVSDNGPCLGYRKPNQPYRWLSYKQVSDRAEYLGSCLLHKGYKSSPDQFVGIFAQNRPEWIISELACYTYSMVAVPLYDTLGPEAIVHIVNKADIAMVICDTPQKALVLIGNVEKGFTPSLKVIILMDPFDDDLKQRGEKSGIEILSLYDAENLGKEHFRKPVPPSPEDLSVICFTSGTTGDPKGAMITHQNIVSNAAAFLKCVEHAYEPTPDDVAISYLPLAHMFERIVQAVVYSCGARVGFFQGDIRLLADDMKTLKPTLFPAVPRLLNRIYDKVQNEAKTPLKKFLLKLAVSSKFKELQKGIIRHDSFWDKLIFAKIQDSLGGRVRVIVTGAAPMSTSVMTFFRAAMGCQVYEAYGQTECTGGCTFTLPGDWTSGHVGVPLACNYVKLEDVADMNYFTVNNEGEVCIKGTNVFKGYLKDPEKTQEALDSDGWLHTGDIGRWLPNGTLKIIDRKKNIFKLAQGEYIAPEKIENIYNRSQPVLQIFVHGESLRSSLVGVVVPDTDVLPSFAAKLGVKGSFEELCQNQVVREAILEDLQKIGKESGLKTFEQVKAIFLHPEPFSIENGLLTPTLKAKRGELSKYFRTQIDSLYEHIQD
UniProt O95573: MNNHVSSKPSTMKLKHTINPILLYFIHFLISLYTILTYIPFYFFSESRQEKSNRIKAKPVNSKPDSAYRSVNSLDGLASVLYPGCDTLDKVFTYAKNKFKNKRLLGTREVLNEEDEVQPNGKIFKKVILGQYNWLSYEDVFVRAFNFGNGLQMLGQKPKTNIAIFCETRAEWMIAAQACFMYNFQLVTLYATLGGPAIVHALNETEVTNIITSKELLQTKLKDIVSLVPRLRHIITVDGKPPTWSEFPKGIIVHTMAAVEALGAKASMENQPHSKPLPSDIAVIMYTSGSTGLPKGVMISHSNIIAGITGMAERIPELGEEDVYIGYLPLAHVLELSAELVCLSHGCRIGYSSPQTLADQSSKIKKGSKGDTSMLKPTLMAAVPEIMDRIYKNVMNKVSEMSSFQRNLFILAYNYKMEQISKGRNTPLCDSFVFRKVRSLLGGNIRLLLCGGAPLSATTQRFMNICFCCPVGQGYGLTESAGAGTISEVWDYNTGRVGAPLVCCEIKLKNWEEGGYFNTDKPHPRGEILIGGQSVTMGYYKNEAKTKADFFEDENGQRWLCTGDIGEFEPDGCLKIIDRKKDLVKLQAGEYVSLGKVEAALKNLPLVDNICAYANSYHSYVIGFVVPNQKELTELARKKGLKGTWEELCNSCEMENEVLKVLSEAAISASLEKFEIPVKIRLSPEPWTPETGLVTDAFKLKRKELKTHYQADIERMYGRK
UniProt P30566: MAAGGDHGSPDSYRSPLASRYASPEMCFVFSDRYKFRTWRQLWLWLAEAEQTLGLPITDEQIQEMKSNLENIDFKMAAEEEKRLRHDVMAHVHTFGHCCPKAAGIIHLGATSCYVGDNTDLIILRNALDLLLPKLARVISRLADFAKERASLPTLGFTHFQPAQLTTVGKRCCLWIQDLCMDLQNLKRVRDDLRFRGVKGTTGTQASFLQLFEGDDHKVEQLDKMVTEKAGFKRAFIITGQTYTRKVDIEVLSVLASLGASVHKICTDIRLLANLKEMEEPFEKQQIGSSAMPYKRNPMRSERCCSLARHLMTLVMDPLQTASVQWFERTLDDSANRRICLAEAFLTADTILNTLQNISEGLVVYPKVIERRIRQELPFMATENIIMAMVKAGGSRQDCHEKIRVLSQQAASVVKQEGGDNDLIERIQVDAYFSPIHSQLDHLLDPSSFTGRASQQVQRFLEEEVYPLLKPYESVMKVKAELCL
UniProt O96019, whole entry, looked up: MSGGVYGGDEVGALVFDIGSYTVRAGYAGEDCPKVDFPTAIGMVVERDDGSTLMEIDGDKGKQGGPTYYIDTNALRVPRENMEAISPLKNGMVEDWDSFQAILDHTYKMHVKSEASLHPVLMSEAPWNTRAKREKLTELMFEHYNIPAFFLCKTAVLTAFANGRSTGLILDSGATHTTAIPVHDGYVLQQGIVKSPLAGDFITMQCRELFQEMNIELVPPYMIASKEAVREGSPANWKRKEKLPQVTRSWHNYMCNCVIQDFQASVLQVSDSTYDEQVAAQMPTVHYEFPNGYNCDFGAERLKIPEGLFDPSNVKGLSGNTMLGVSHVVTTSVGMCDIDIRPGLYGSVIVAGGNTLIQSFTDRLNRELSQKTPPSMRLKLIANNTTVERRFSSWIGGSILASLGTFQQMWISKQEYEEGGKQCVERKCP
UniProt O60266: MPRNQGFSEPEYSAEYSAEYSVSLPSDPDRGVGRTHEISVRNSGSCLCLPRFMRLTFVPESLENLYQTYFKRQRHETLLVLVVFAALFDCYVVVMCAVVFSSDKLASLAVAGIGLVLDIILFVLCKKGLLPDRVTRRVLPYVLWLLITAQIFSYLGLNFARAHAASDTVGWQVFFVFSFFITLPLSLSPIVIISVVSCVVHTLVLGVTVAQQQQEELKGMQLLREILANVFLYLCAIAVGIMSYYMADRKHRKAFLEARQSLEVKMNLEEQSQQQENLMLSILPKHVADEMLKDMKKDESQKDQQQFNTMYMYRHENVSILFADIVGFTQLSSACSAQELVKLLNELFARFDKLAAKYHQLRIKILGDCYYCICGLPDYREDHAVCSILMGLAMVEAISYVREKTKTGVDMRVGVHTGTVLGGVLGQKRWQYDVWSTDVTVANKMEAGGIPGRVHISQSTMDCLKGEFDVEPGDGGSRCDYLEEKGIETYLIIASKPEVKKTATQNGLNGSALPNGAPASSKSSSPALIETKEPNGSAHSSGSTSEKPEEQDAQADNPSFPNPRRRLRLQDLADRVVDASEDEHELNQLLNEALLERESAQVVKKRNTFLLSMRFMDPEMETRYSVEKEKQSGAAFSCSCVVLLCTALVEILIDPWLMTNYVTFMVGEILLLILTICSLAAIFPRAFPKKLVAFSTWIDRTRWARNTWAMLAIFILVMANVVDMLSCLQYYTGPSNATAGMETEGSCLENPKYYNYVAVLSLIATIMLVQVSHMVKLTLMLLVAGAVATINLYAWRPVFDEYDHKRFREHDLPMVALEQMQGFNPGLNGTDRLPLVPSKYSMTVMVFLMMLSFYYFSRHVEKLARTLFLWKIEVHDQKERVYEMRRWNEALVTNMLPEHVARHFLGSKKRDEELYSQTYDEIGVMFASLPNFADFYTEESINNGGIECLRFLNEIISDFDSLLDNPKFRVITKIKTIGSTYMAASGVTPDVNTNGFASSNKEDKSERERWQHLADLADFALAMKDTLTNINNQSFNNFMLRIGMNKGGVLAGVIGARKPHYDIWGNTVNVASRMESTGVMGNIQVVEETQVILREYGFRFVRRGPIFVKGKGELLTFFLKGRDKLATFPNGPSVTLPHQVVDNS
UniProt Q9Y305: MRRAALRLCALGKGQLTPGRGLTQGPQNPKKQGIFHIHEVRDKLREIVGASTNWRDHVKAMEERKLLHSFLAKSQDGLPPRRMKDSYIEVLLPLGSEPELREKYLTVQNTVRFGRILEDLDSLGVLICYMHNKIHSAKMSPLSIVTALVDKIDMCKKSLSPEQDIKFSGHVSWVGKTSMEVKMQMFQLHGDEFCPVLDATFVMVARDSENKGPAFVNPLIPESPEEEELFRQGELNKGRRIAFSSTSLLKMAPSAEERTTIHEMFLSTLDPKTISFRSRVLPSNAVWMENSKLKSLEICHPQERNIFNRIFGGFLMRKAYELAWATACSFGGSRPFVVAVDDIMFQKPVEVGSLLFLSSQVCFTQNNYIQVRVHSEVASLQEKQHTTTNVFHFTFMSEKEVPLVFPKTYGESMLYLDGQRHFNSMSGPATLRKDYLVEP
UniProt O14734: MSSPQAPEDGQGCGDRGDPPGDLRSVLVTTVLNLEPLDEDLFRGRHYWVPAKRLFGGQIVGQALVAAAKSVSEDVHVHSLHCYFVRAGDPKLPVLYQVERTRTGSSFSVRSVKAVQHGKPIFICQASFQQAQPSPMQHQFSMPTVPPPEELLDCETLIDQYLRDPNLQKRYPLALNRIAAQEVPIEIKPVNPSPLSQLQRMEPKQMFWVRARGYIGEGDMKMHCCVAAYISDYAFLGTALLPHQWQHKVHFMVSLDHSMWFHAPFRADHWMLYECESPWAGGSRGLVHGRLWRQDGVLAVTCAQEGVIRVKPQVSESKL
UniProt Q9NX46: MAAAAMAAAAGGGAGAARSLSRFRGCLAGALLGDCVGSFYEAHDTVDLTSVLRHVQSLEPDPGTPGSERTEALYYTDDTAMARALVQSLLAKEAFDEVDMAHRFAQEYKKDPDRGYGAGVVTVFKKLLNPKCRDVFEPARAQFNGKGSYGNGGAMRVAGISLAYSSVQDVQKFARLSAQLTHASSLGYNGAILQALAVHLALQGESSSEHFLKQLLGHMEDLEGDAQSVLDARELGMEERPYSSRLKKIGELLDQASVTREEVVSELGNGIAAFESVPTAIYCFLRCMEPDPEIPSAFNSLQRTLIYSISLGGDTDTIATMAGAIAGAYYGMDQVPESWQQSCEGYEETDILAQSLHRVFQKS

The other results are listed elsewhere or left out.

Compound in this experiment: CC1Cc2ccccc2N1C(=O)C1CCCN(C1)C(=O)CCl (mixture of isomers) [TRIM25 ligand 11 (diastereomer mixture)]
Briefly: probe-labelled cysteine peptide fold change vs DMSO (competition) (log2 fold change); higher = less target engagement (more negative = stronger competition). As to conditions: THP-1, incubation time: 4 h.
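Further: competitive chemoproteomic profiling in live THP-1 cells with an iodoacetamide desthiobiotin (IA-DTB) probe, comparing probe-labelled peptide intensities in compound-treated cells against DMSO-treated controls.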

On to “ACOX3_O15254_426_EACGGHGYLAMNR (UniProt O15254)”, for which the “probe-labelled cysteine peptide fold change” value (10 µM) was 0.0386 and the “probe-labelled cysteine peptide fold change” value (50 µM) was -0.0932.

“ACTG1_P63261_17_EEEIAALVIDNGSGMCK (UniProt P63261)”: the “probe-labelled cysteine peptide fold change” value is -0.119 (10 µM) and -0.314 (50 µM).

As for “ADA2_Q9NZK5_408_DIPIEVCPISNQVLK (UniProt Q9NZK5)”, the “probe-labelled cysteine peptide fold change” value (10 µM) was determined as 0.0772 and the “probe-labelled cysteine peptide fold change” value (50 µM) was -0.158.

On to “ACTN4_O43707_793_ACLISLGYDVENDR (UniProt O43707)”, for which the “probe-labelled cysteine peptide fold change” value by setting is: (10 µM) 0.207; (50 µM) 0.213.

Turning to “ACTR3_P61158_34_LGYAGNTEPQFIIPSCIAIK (UniProt P61158)”, the “probe-labelled cysteine peptide fold change” value was determined as 0.112 (10 µM) and 0.000378 (50 µM).

With “ADCY9_O60503_1204_MDTTGVECR (UniProt O60503)”, the “probe-labelled cysteine peptide fold change” value runs as follows: (10 µM) 0.0935; (50 µM) -0.00952.

As to “ADK_P55263_140+143_AAEAHVDAHYYEQNEQPTGTCAACITGDNR (UniProt P55263)”, the “probe-labelled cysteine peptide fold change” value is 0.0261 (10 µM) and -0.0499 (50 µM).

Turning to “ACY1_Q03154_116_CVSIQYLEAVR (UniProt Q03154)”, the “probe-labelled cysteine peptide fold change” value (10 µM) was 0.058 and the “probe-labelled cysteine peptide fold change” value (50 µM) was -0.021.

In the case of “ACTR3_P61158_8+12_LPACVVDCGTGYTK (UniProt P61158)”, the “probe-labelled cysteine peptide fold change” value was 0.0365 (10 µM) and -0.138 (50 µM).

Turning to “ACP2_P11117_345_APWPLSLPGCPHR (UniProt P11117)”, the “probe-labelled cysteine peptide fold change” value (10 µM) was -0.172 and the “probe-labelled cysteine peptide fold change” value (50 µM) amounted to 0.0455.

On to “ACSL5_Q9ULC5_322_IVQAVVYSCGAR (UniProt Q9ULC5)”, for which the “probe-labelled cysteine peptide fold change” value (10 µM) was -0.449 and the “probe-labelled cysteine peptide fold change” value (50 µM) is 0.334.

In the case of “ADGRA2_Q96PE1_1147_LTNLQLAQSQVCEAGAAAGGEGEPEPAGTR (UniProt Q96PE1)”, the “probe-labelled cysteine peptide fold change” value is, setting by setting: (10 µM) 0.0413; (50 µM) -0.116.

As to “ACSL3_O95573_450_LLLCGGAPLSATTQR (UniProt O95573)”, the “probe-labelled cysteine peptide fold change” value by setting is: (10 µM) 0.00352; (50 µM) 0.039.

For “ACTN4_O43707_499_ICDQWDALGSLTHSR (UniProt O43707)”, the “probe-labelled cysteine peptide fold change” value runs as follows: (10 µM) 0.134; (50 µM) 0.0841.

As for “ACY1_Q03154_116_CVSIQYLEAVRR (UniProt Q03154)”, the “probe-labelled cysteine peptide fold change” value (10 µM) was -0.266 and the “probe-labelled cysteine peptide fold change” value (50 µM) was -0.188.

“ADSL_P30566_99_HDVMAHVHTFGHCCPK (UniProt P30566)”: the “probe-labelled cysteine peptide fold change” value is, setting by setting: (10 µM) -0.0906; (50 µM) -0.0282.

Regarding “ACTL6A_O96019_152_LTELMFEHYNIPAFFLCK (UniProt O96019)”, the “probe-labelled cysteine peptide fold change” value is, setting by setting: (10 µM) -0.0461; (50 µM) 0.0154.

Consider “ACTR2_P61160_20_CGYAGSNFPEHIFPALVGR (UniProt P61160)”, for which the “probe-labelled cysteine peptide fold change” value is, setting by setting: (10 µM) 0.0563; (50 µM) 0.0215.

On to “ADNP_Q9H2P0_624+627_TLCPLCFSILK (UniProt Q9H2P0)”, for which the “probe-labelled cysteine peptide fold change” value runs as follows: (10 µM) 0.00147; (50 µM) 0.101.

With “ADH5_P11766_170_VCLLGCGISTGYGAAVNTAK (UniProt P11766)”, the “probe-labelled cysteine peptide fold change” value (10 µM) is 0.318 and the “probe-labelled cysteine peptide fold change” value (50 µM) was 0.0674.

With “ACTR2_P61160_11_VVVCDNGTGFVK (UniProt P61160)”, the “probe-labelled cysteine peptide fold change” value is, setting by setting: (10 µM) 0.0257; (50 µM) -0.158.

As to “ACSL4_O60488_221_TALLDISCVK (UniProt O60488)”, the “probe-labelled cysteine peptide fold change” value (10 µM) is 0.106 and the “probe-labelled cysteine peptide fold change” value (50 µM) turned out to be 0.108.

As for “ADAM10_O14672_607_DDKELCHVCCMKKMDPSTCASTGSVQWSR (UniProt O14672)”, the “probe-labelled cysteine peptide fold change” value (10 µM) is -0.0506 and the “probe-labelled cysteine peptide fold change” value (50 µM) stood at 0.00492.

In the case of “ADCY3_O60266_479_CDYLEEK (UniProt O60266)”, the “probe-labelled cysteine peptide fold change” value was -0.0152 (10 µM) and -0.126 (50 µM).

Turning to “ADAR_P55265_909_GDSLSLKGETVNDCHAEIISR (UniProt P55265)”, the “probe-labelled cysteine peptide fold change” value (10 µM) is -0.336 and the “probe-labelled cysteine peptide fold change” value (50 µM) is -0.181.

Turning to “ACSL1_P33121_625_GFEGSFEELCR (UniProt P33121)”, the “probe-labelled cysteine peptide fold change” value reads like this: (10 µM) 0.0407; (50 µM) 0.0266.

Turning to “ACOT9_Q9Y305_299_SLEICHPQER (UniProt Q9Y305)”, the “probe-labelled cysteine peptide fold change” value runs as follows: (10 µM) 0.108; (50 µM) 0.0885.

Take “AFF4_Q9UHB7_315_IPSQPLDASASGDVSCVDEILK (UniProt Q9UHB7)”: the “probe-labelled cysteine peptide fold change” value reads like this: (10 µM) -0.0997; (50 µM) -0.227.

Turning to “ACOT8_O14734_275_ADHWMLYECESPWAGGSR (UniProt O14734)”, the “probe-labelled cysteine peptide fold change” value by setting is: (10 µM) -0.0955; (50 µM) 0.0266.

Regarding “ACSL5_Q9ULC5_288_CVEHAYEPTPDDVAISYLPLAHMFER (UniProt Q9ULC5)”, the “probe-labelled cysteine peptide fold change” value worked out at 0.248 (10 µM) and 0.0966 (50 µM).

“ACTL6A_O96019_206_SPLAGDFITMQCR (UniProt O96019)”: the “probe-labelled cysteine peptide fold change” value runs as follows: (10 µM) 0.0233; (50 µM) 0.201.

Regarding “ADSL_P30566_180_CCLWIQDLCMDLQNLKR (UniProt P30566)”, the “probe-labelled cysteine peptide fold change” value by setting is: (10 µM) -0.043; (50 µM) 0.0814.

“ADK_P55263_140_AAEAHVDAHYYEQNEQPTGTCAACITGDNR (UniProt P55263)”: the “probe-labelled cysteine peptide fold change” value reads like this: (10 µM) 0.165; (50 µM) 0.0322.

Regarding “ADA_P00813_262_LRQENMHFEICPWSSYLTGAWKPDTEHAVIR (UniProt P00813)”, the “probe-labelled cysteine peptide fold change” value (10 µM) is -0.152 and the “probe-labelled cysteine peptide fold change” value (50 µM) is -0.106.

Take “ADGRA2_Q96PE1_194+196_VVDLGTEFLTCDCHLR (UniProt Q96PE1)”: the “probe-labelled cysteine peptide fold change” value (10 µM) is 0.081 and the “probe-labelled cysteine peptide fold change” value (50 µM) came to 0.204.

For “ADPRHL2_Q9NX46_132_CRDVFEPAR (UniProt Q9NX46)”, the “probe-labelled cysteine peptide fold change” value (10 µM) is 0.0406 and the “probe-labelled cysteine peptide fold change” value (50 µM) was -0.0411.

With “ADAM9_Q13443_539_DCFIEVNSK (UniProt Q13443)”, the “probe-labelled cysteine peptide fold change” value is 0.136 (10 µM) and 0.109 (50 µM).

Consider “ACOT9_Q9Y305_194_MQMFQLHGDEFCPVLDATFVMVAR (UniProt Q9Y305)”, for which the “probe-labelled cysteine peptide fold change” value is -0.0142 (10 µM) and -0.131 (50 µM).
